Experimental data as given in publication PMC7601384.
Positions count from the first letter of the chain named. These are yes or no findings as the source states them, for the method shown. Some results given as binding are weak or reduced against the parent protein; the word gives no strength.

Amino acid sequences for entries named in this document (tags omitted).
UniProt P16371: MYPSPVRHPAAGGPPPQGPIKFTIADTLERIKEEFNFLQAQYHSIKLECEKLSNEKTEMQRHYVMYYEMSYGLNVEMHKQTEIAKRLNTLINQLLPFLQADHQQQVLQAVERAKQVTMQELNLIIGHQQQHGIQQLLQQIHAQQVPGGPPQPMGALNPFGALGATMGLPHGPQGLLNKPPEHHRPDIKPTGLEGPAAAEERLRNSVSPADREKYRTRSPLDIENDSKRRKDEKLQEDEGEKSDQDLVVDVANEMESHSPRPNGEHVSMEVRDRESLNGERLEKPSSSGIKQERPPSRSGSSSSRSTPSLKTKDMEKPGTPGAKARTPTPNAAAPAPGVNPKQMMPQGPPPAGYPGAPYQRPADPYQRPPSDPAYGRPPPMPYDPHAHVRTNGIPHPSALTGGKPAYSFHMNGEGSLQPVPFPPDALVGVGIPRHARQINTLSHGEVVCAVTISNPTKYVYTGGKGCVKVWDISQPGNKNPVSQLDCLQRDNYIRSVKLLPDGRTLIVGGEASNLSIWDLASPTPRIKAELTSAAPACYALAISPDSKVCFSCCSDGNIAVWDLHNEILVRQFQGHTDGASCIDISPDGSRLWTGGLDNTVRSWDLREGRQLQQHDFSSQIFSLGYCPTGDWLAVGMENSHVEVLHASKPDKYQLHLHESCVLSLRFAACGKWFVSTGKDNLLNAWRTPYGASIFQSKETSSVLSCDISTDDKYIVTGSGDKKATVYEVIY
UniProt O46036: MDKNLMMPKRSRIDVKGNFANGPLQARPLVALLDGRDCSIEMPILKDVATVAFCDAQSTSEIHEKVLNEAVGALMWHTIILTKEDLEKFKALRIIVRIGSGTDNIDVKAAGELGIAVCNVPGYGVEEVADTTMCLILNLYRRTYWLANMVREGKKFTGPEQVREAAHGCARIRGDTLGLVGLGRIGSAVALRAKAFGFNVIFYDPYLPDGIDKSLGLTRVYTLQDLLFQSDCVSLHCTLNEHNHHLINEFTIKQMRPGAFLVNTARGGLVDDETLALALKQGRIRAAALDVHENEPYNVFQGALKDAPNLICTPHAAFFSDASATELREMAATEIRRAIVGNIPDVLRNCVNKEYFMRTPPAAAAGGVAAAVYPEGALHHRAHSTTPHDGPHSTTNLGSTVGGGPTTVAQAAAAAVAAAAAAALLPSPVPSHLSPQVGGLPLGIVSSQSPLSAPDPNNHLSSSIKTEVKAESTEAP

Columns and labels:
[1] = molecular target: T1, Hairless (H) wild type, full-length pEG-H bait (Drosophila melanogaster) (UniProt Q02308); assay: two-hybrid
T1 sequence: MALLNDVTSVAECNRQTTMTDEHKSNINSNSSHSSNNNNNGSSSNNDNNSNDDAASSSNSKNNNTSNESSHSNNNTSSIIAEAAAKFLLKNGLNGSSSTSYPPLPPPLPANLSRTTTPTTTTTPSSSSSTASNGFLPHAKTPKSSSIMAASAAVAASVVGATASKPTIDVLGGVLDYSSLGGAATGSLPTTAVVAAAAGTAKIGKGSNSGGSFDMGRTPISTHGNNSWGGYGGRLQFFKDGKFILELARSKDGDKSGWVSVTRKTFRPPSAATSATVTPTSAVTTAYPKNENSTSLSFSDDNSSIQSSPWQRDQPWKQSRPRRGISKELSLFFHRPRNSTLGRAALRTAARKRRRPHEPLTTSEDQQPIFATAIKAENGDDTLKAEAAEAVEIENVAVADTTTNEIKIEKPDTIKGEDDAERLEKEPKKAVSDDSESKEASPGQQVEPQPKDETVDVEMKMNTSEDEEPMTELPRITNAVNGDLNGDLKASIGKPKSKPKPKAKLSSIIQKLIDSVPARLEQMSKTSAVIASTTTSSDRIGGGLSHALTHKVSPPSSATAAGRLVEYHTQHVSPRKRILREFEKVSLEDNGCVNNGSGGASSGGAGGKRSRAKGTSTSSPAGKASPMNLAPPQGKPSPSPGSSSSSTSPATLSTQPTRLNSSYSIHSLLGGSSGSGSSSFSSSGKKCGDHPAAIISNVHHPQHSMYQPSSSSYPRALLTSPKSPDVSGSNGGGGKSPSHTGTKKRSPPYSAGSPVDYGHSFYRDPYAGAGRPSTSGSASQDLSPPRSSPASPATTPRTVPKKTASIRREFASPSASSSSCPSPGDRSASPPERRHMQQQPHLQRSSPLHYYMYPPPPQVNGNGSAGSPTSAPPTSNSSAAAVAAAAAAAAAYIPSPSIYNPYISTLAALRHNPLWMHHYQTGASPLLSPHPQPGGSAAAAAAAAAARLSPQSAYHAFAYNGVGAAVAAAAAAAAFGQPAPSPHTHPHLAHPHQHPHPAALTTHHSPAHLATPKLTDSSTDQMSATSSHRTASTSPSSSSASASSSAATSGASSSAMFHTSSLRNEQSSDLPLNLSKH

[2] = molecular target: T2, Hairless HLD mutant (L235D), full-length pEG-HLD bait (Drosophila melanogaster) (UniProt Q02308); assay: two-hybrid
T2 sequence: T1 sequence with L235D

[3] = molecular target: T3, Hairless HdNT mutant, full-length pEG-HdNT bait (Drosophila melanogaster) (UniProt Q02308); assay: two-hybrid
T3 sequence: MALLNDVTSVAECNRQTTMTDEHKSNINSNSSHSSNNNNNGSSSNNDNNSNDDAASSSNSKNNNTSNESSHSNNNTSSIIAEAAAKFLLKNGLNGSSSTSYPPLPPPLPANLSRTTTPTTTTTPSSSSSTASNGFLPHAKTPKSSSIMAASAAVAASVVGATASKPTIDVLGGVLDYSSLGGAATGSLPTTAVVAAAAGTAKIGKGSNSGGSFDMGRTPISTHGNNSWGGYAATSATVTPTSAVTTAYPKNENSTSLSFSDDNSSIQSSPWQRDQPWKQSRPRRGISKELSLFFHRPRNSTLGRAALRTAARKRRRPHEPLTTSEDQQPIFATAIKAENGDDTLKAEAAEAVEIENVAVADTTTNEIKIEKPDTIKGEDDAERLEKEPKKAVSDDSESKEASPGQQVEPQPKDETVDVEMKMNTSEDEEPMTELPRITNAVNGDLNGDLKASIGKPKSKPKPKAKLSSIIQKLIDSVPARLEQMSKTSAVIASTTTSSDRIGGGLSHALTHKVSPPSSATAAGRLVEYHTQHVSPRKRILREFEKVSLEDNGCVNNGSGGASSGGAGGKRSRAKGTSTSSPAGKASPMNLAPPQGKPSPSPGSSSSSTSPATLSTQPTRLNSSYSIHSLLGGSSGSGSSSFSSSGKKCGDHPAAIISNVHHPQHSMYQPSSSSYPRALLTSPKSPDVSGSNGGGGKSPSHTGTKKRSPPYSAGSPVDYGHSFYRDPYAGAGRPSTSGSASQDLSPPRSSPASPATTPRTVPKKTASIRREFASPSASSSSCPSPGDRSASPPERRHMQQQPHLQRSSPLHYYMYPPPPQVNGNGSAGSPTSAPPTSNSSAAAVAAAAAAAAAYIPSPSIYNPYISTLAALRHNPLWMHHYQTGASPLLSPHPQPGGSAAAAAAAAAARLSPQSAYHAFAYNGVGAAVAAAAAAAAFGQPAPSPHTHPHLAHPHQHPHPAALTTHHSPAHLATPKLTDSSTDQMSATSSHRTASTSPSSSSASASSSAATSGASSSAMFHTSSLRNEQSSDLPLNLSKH

[4] = molecular target: T1, Hairless (H) wild type, full-length pEG-H bait (Drosophila melanogaster); assay: two-hybrid; Brent yeast two-hybrid; H wild type or H* mutants as LexA bait in pEG202; Su(H) as B42 prey in pJG4-5, Gro or CtBP as VP16 prey; lacZ reporter, blue colonies on X-Gal plates; empty vectors as control
[5] = molecular target: T2, Hairless HLD mutant (L235D), full-length pEG-HLD bait (Drosophila melanogaster); assay: as above
[6] = molecular target: T3, Hairless HdNT mutant, full-length pEG-HdNT bait (Drosophila melanogaster); assay: as above

Measured: binding

Groucho (Gro), VP16-Gro prey (from UniProt P16371 1-730)
binds: [1] | [2] | [3]

C-terminal binding protein (CtBP), VP16-CtBP prey (from UniProt O46036 1-476)
binds: [4] | [5] | [6]
